Measurements as given in publication PMC4476799, “Englerin A Agonizes the TRPC4/C5 Cation Channels to Inhibit Tumor Cell Line Proliferation” (PLoS ONE, 2015).
The source gives many values for each of these; only a part stands here.

Tested on: cancer cell lines from the cancer cell line encyclopedia (CCLE)
Experiment: Cell line profiling (CLiP) proliferation experiment
Type: cell-based
Design: ACTIVITY_AREA: scale not given here; AMAX: unit not given here
Description: Compound profiling experiment and data analysis was performed as previously described. Data was imported and plotted using the Tibco Spotfire DXP application. Lines were categorized as sensitive, intermediate and refractory as follows: Amax<-40 & Inflection Point <2 ~ Sensitive, Amax>-20 & Inflection Point >10 ~ Refractory, all else were called Intermediate. Cancer Cell line HG-U133 Plus 2 data was processed and normalized as described. […] Five sets of refractory cell lines were generated from the pool of refractory cell lines trying to match the lineage composition of the set of sensitive cell lines. The limma package was used as previously described to perform the statistical comparison.

[1] = cell line Loucy (haematopoietic_and_lymphoid_tissue, acute_lymphoblastic_T_cell_leukaemia)
[2] = cell line MC116 (haematopoietic_and_lymphoid_tissue, B_cell_lymphoma_unspecified)
[3] = cell line MCAS (ovary, mucinous_carcinoma)
[4] = cell line MDA-MB-231 (breast, NS)
[5] = cell line MDA-MB-453 (breast, NS)
[6] = cell line MEC-1 (haematopoietic_and_lymphoid_tissue, chronic_lymphocytic_leukaemia-small_lymphocytic_lymphoma)
[7] = cell line MFE-296 (endometrium)
[8] = cell line MHH-NB-11 (autonomic_ganglia)
[9] = cell line MIA PaCa-2 (pancreas)
[10] = cell line MJ (haematopoietic_and_lymphoid_tissue)
[11] = cell line MM1-S (haematopoietic_and_lymphoid_tissue)
[12] = cell line MOG-G-UVW (central_nervous_system)
[13] = cell line MOLM-13 (haematopoietic_and_lymphoid_tissue)
[14] = cell line MOLM-16 (haematopoietic_and_lymphoid_tissue)
[15] = cell line MOLP-8 (haematopoietic_and_lymphoid_tissue)
[16] = cell line MOLT-16 (haematopoietic_and_lymphoid_tissue)
[17] = cell line MOLT-16 (haematopoietic_and_lymphoid_tissue, acute_lymphoblastic_T_cell_leukaemia)
[18] = cell line MONO-MAC-1 (haematopoietic_and_lymphoid_tissue)
[19] = cell line MONO-MAC-6 (haematopoietic_and_lymphoid_tissue)
[20] = cell line MONO-MAC-6 (haematopoietic_and_lymphoid_tissue, acute_myeloid_leukaemia)

## CC(C)[C@@]12C[C@@H](O)[C@@](C)(O1)[C@@H]1CC[C@@H](C)[C@H]1[C@@H]2OC(=O)/C=C/c1ccccc1 [Englerin B]
Cell line IGR-39
  AMAX: -36.52
  RESPONSE: INTERMEDIATE
Cell line IGR-39, skin
  ACTIVITY_AREA: 70.27
  AMAX: -36.52
  RESPONSE: INTERMEDIATE
Cell line IGROV1, ovary
  ACTIVITY_AREA: 38.35
  AMAX: -25.23
  RESPONSE: INTERMEDIATE
Cell line IPC-298
  ACTIVITY_AREA: 31.6
  AMAX: -31.36
  RESPONSE: INTERMEDIATE
Cell line J82
  ACTIVITY_AREA: 6.63
  AMAX: -28.14
  RESPONSE: INTERMEDIATE
Cell line JHH-2
  ACTIVITY_AREA: 49.18
  AMAX: -46.72
  RESPONSE: INTERMEDIATE
Cell line JHOM-1
  ACTIVITY_AREA: 17.33
  AMAX: -51.79
  RESPONSE: INTERMEDIATE
Cell line JJN-3
  ACTIVITY_AREA: 16.87
  AMAX: -1.17
  RESPONSE: REFRACTORY
Cell line JURKAT
  ACTIVITY_AREA: 72.2
  AMAX: -83.41
  RESPONSE: INTERMEDIATE
Cell line JVM-3
  ACTIVITY_AREA: 18.3
  AMAX: 3.55
  RESPONSE: REFRACTORY
Cell line K-562
  ACTIVITY_AREA: 49.17
  AMAX: -49.05
  RESPONSE: INTERMEDIATE
Cell line KARPAS-299
  ACTIVITY_AREA: 51.51
  AMAX: -86.39
  RESPONSE: INTERMEDIATE
Cell line KARPAS-620
  ACTIVITY_AREA: 32.66
  AMAX: -70.61
  RESPONSE: INTERMEDIATE
Cell line KATO III
  ACTIVITY_AREA: 50.08
  AMAX: -60.06
  RESPONSE: INTERMEDIATE
Cell line KELLY
  ACTIVITY_AREA: 53.88
  AMAX: -99.41
  RESPONSE: INTERMEDIATE
Cell line KLE
  ACTIVITY_AREA: 36.8
  AMAX: -42.78
  RESPONSE: INTERMEDIATE
Cell line KMS-28BM
  ACTIVITY_AREA: 29.69
  AMAX: -50.99
  RESPONSE: INTERMEDIATE
Cell line KP-N-SI9s
  ACTIVITY_AREA: 39.08
  AMAX: -59.99
  RESPONSE: INTERMEDIATE
Cell line KYSE-270
  ACTIVITY_AREA: 78.27
  AMAX: -38.17
  RESPONSE: INTERMEDIATE
[1]
  ACTIVITY_AREA: 40.46
  AMAX: -77.08
  RESPONSE: INTERMEDIATE
[2]
  ACTIVITY_AREA: 38.31
  AMAX: -98.12
  RESPONSE: INTERMEDIATE
[3]
  ACTIVITY_AREA: 25.17
  AMAX: -38.75
  RESPONSE: INTERMEDIATE
[4]
  ACTIVITY_AREA: 47.93
  AMAX: -44.39
  RESPONSE: INTERMEDIATE
[5]
  ACTIVITY_AREA: 54.06
  AMAX: -63.93
  RESPONSE: INTERMEDIATE
[6]
  ACTIVITY_AREA: 41.33
  AMAX: -58.42
  RESPONSE: INTERMEDIATE
Cell line MEL-HO
  ACTIVITY_AREA: 73.24
  AMAX: -36.18
  RESPONSE: INTERMEDIATE
Cell line MEL-HO (skin)
  ACTIVITY_AREA: 73.24
  AMAX: -36.18
  RESPONSE: INTERMEDIATE
Cell line MEL-JUSO (skin)
  ACTIVITY_AREA: 85.15
  AMAX: -17.8
  RESPONSE: REFRACTORY
[7]
  ACTIVITY_AREA: 30.54
  AMAX: -63.15
  RESPONSE: INTERMEDIATE
Cell line MG-63
  ACTIVITY_AREA: 49.07
  AMAX: -25.48
  RESPONSE: INTERMEDIATE
Cell line MG-63 (bone)
  ACTIVITY_AREA: 49.07
  AMAX: -25.48
  RESPONSE: INTERMEDIATE
Cell line MHH-NB-11
  ACTIVITY_AREA: 20.68
  AMAX: -56.69
  RESPONSE: INTERMEDIATE
[8]
  ACTIVITY_AREA: 20.68
  AMAX: -56.69
  RESPONSE: INTERMEDIATE
[9]
  ACTIVITY_AREA: 21.84
  AMAX: -45.2
  RESPONSE: INTERMEDIATE
Cell line MJ
  ACTIVITY_AREA: 86.63
  AMAX: -80.66
  RESPONSE: INTERMEDIATE
[10]
  ACTIVITY_AREA: 86.63
  AMAX: -80.66
  RESPONSE: INTERMEDIATE
Cell line MKN1
  ACTIVITY_AREA: 40.95
  AMAX: 0.87
  RESPONSE: REFRACTORY
Cell line MKN1 (stomach)
  ACTIVITY_AREA: 40.95
  AMAX: 0.87
  RESPONSE: REFRACTORY
Cell line MKN7 (stomach)
  ACTIVITY_AREA: 17.73
  AMAX: -33.53
  RESPONSE: INTERMEDIATE
Cell line MKN74
  ACTIVITY_AREA: 17.11
  AMAX: -54.6
  RESPONSE: INTERMEDIATE
Cell line MKN74 (stomach)
  ACTIVITY_AREA: 17.11
  AMAX: -54.6
  RESPONSE: INTERMEDIATE
Cell line MKN-45 (stomach)
  ACTIVITY_AREA: 62.13
  AMAX: -32.27
  RESPONSE: INTERMEDIATE
Cell line MM1-S
  ACTIVITY_AREA: 20.99
  AMAX: -39.73
  RESPONSE: INTERMEDIATE
[11]
  ACTIVITY_AREA: 20.99
  AMAX: -39.73
  RESPONSE: INTERMEDIATE
Cell line MOG-G-UVW
  ACTIVITY_AREA: 10.19
  AMAX: -24.06
  RESPONSE: INTERMEDIATE
[12]
  ACTIVITY_AREA: 10.19
  AMAX: -24.06
  RESPONSE: INTERMEDIATE
[13]
  ACTIVITY_AREA: 49.89
  AMAX: -90.98
  RESPONSE: INTERMEDIATE
Cell line MOLM-16
  ACTIVITY_AREA: 75.11
  AMAX: -81.93
  RESPONSE: INTERMEDIATE
[14]
  ACTIVITY_AREA: 75.11
  AMAX: -81.93
  RESPONSE: INTERMEDIATE
Cell line MOLP-8
  ACTIVITY_AREA: 20.53
  AMAX: -60.07
  RESPONSE: INTERMEDIATE
[15]
  ACTIVITY_AREA: 20.53
  AMAX: -60.07
  RESPONSE: INTERMEDIATE
[16]
  ACTIVITY_AREA: 14.74
  AMAX: -74.95
  RESPONSE: INTERMEDIATE
[17]
  ACTIVITY_AREA: 14.74
  AMAX: -74.95
  RESPONSE: INTERMEDIATE
Cell line MONO-MAC-1
  ACTIVITY_AREA: 27.45
  AMAX: -73.86
  RESPONSE: INTERMEDIATE
[18]
  ACTIVITY_AREA: 27.45
  AMAX: -73.86
  RESPONSE: INTERMEDIATE
[19]
  ACTIVITY_AREA: 35.17
  AMAX: -68.18
  RESPONSE: INTERMEDIATE
[20]
  ACTIVITY_AREA: 35.17
  AMAX: -68.18
  RESPONSE: INTERMEDIATE
Cell line MOR/CPR
  ACTIVITY_AREA: 20.21
  AMAX: -50.6
